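A panel of P. falciparum strains inside erythrocytes is exposed to compounds for three days, then a DNA-binding dye reports the amount of parasite DNA. Each compound was titrated across a series from about 0.000037 to 29 µM. The number is the fitted AC50, the concentration giving a half-maximal change in signal; a lower value means higher potency, whether the curve shows a decrease or an increase. Calls follow the curve class and fit quality: every row here is inconclusive, covering signal-raising curves and weak, poorly fitted, partial or highest-dose-only inhibition curves.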

Values are in µM. All entries here are filed as inconclusive. Only part of the assay is shown, chiefly results filed as inconclusive. Potencies fitted to partial, single-point or poorly fitting curves are rough.

structure | condition | Potency (µM) | curve as filed
Oc1cccc(O)c1O | ECU | 17.78 | inhibitor, single point
Oc1cccc(O)c1O | Dd2 | 10 | inhibitor, single point
Oc1cccc(O)c1O | CP192 | 16.94 | inhibitor, single point
Oc1cccc(O)c1O | TAB165 | 17.78 | inhibitor, single point
Oc1cccc(O)c1O | CP191 | 17.78 | inhibitor, single point
Oc1cccc(O)c1O | PC15 | 17.78 | inhibitor, single point
Oc1cccc(O)c1O | PC26 | 19.01 | inhibitor, single point
Oc1cccc(O)c1O | PAD | 12.59 | inhibitor, single point
Oc1cccc(O)c1O | CP211 | 13.46 | inhibitor, single point
Oc1cccc(O)c1O | P94_40 | 11.22 | inhibitor, single point
Oc1cccc(O)c1O | CP329 | 19.01 | inhibitor, single point
Oc1cccc(O)c1O | CP269 | 19.01 | inhibitor, single point
Oc1cccc(O)c1O | CP268 | 16.94 | inhibitor, single point
Oc1cccc(O)c1O | CP247 | 17.78 | inhibitor, single point
Oc1cccc(O)c1O | CP262 | 21.33 | inhibitor, partial curve, poor fit
Oc1cccc(O)c1O | ATS189 | 17.78 | inhibitor, single point
C=CCN=C=S | CP269 | 21.33 | inhibitor, single point
C=CCN=C=S | CP305 | 19.01 | inhibitor, single point
C=CCN=C=S | CP297 | 19.01 | inhibitor, partial curve, poor fit
C=CCN=C=S | PC26 | 19.01 | inhibitor, single point
C=CCN=C=S | CP329 | 19.01 | inhibitor, single point
C=CCN=C=S | CP203 | 19.01 | inhibitor, single point
C=CCN=C=S | CP215 | 19.01 | inhibitor, single point
C=CCN=C=S | DIV30 | 10.69 | inhibitor, partial curve
C=CCN=C=S | DIV17 | 19.01 | inhibitor, single point
C=CCN=C=S | CP268 | 19.01 | inhibitor, single point
C=CCN=C=S | CP201 | 16.94 | inhibitor, single point
C=CCN=C=S | CP194 | 15.1 | inhibitor, partial curve
C=CCN=C=S | CP291 | 19.01 | inhibitor, single point
C=CCN=C=S | CP192 | 19.01 | inhibitor, single point
C=CCN=C=S | CP315 | 19.01 | inhibitor, single point
C=CCN=C=S | GB4 | 19.01 | inhibitor, single point
C=CCN=C=S | CP211 | 19.01 | inhibitor, single point
CN1C[C@@H](NS(=O)(=O)N(C)C)C[C@@H]2c3cccc4c3c(cn4C)C[C@H]21 | P94_40 | 14.13 | inhibitor, single point
CN1C[C@@H](NS(=O)(=O)N(C)C)C[C@@H]2c3cccc4c3c(cn4C)C[C@H]21 | AA1029 | 14.13 | inhibitor, single point
CN1C[C@@H](NS(=O)(=O)N(C)C)C[C@@H]2c3cccc4c3c(cn4C)C[C@H]21 | CP266 | 7.569 | inhibitor, partial curve, poor fit

The first 3 entries again:

- Oc1cccc(O)c1O [ECU] : Potency 17.78 µM (inhibitor, single point)
- Oc1cccc(O)c1O [Dd2] : Potency 10 µM (inhibitor, single point)
- Oc1cccc(O)c1O [CP192] : Potency 16.94 µM (inhibitor, single point)

Data taken from PubChem BioAssay AID504749, deposited by NCATS (2011).